Experimental data reported in PMC4680877.
Results are given in words; binding and its absence hold for the method and conditions named. Binding seen in cells or lysates may run through a third protein. Some binding calls cover weakened binding; strength is not graded here.

Chains of the proteins cited; added tags and fusions are not shown. Residues count along the entry.
UniProt Q923J1: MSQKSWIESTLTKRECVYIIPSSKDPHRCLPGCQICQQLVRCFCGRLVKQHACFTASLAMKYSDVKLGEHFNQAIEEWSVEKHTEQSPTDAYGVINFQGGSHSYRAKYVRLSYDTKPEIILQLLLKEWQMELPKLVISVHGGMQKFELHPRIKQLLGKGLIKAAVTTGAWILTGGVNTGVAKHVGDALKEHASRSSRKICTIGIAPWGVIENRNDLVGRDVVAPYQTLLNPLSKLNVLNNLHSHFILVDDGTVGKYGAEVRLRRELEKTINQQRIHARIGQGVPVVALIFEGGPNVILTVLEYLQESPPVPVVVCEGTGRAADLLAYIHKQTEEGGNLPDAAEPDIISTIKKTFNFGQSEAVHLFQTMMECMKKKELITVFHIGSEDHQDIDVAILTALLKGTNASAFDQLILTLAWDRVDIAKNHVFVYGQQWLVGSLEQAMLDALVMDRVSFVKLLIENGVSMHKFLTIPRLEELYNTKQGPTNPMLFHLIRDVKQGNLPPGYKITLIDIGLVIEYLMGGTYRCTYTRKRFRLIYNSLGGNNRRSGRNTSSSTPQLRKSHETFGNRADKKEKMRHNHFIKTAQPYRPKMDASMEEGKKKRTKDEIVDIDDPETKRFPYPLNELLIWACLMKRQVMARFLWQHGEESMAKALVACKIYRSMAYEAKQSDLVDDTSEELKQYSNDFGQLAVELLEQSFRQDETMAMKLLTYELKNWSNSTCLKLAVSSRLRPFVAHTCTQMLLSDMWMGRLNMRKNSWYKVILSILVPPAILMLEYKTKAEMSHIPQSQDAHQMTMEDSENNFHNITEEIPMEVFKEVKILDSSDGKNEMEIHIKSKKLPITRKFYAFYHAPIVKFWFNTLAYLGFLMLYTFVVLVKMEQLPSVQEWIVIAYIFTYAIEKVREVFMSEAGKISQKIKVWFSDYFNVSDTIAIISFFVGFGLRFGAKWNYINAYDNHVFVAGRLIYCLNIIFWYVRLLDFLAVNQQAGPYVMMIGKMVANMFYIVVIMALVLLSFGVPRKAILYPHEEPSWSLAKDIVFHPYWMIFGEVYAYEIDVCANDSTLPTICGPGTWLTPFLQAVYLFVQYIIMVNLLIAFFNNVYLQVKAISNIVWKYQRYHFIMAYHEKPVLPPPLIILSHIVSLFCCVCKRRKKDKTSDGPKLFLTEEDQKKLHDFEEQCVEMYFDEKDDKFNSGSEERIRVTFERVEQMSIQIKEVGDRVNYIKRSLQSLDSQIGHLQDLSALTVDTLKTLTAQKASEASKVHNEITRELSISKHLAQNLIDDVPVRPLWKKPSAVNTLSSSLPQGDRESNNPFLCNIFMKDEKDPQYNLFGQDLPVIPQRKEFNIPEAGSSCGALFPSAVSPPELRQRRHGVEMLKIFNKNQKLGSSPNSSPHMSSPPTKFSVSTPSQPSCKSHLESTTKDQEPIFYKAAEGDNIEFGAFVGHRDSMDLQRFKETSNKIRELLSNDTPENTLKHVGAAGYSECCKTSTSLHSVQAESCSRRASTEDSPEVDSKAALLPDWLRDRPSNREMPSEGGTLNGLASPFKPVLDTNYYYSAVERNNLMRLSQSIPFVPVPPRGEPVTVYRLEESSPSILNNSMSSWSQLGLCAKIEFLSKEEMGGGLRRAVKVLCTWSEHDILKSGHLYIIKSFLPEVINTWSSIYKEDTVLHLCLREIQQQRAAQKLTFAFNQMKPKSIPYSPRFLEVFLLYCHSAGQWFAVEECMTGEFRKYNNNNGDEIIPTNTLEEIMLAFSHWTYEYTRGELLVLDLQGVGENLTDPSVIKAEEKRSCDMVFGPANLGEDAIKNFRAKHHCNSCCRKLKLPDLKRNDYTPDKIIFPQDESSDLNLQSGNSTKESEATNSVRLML
UniProt P14314, residues 15-528: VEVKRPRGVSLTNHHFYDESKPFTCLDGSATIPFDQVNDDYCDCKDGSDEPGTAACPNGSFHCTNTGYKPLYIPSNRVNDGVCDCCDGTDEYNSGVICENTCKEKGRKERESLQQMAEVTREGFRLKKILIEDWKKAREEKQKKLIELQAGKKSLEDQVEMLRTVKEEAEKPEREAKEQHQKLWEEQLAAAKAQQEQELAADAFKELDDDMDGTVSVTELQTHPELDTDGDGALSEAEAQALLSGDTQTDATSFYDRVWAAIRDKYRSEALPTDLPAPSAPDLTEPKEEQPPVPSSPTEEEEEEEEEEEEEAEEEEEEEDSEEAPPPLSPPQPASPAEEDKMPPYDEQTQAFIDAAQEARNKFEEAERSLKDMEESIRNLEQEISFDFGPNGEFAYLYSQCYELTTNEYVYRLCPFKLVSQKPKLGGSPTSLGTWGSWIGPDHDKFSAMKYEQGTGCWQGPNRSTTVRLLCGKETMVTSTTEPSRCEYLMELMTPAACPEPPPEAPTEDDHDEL

Target: HA-tagged TRPM7 (not stated (human or mouse cDNA cloned)) (UniProt Q923J1)
Experiment: co-IP; 293-TRPM7 cells induced with tetracycline 1 ug/ml for 24 hrs; HA-TRPM7 precipitated with anti-HA-agarose overnight; blot for endogenous hepatocystin

endogenous hepatocystin (from UniProt P14314 15-528)
binding: binds
